Experimental data from the supplement of paper PMC12067093, “Discovery and optimisation of a covalent ligand for TRIM25 and its application to targeted protein ubiquitination” (Chemical Science, 2025).
This is one part of the list.

The chains behind the UniProt entries cited, without tags or fusion partners. Where a name states a change or a piece, a line headed by the entry shows the natural chain unless it says otherwise.
UniProt P11388: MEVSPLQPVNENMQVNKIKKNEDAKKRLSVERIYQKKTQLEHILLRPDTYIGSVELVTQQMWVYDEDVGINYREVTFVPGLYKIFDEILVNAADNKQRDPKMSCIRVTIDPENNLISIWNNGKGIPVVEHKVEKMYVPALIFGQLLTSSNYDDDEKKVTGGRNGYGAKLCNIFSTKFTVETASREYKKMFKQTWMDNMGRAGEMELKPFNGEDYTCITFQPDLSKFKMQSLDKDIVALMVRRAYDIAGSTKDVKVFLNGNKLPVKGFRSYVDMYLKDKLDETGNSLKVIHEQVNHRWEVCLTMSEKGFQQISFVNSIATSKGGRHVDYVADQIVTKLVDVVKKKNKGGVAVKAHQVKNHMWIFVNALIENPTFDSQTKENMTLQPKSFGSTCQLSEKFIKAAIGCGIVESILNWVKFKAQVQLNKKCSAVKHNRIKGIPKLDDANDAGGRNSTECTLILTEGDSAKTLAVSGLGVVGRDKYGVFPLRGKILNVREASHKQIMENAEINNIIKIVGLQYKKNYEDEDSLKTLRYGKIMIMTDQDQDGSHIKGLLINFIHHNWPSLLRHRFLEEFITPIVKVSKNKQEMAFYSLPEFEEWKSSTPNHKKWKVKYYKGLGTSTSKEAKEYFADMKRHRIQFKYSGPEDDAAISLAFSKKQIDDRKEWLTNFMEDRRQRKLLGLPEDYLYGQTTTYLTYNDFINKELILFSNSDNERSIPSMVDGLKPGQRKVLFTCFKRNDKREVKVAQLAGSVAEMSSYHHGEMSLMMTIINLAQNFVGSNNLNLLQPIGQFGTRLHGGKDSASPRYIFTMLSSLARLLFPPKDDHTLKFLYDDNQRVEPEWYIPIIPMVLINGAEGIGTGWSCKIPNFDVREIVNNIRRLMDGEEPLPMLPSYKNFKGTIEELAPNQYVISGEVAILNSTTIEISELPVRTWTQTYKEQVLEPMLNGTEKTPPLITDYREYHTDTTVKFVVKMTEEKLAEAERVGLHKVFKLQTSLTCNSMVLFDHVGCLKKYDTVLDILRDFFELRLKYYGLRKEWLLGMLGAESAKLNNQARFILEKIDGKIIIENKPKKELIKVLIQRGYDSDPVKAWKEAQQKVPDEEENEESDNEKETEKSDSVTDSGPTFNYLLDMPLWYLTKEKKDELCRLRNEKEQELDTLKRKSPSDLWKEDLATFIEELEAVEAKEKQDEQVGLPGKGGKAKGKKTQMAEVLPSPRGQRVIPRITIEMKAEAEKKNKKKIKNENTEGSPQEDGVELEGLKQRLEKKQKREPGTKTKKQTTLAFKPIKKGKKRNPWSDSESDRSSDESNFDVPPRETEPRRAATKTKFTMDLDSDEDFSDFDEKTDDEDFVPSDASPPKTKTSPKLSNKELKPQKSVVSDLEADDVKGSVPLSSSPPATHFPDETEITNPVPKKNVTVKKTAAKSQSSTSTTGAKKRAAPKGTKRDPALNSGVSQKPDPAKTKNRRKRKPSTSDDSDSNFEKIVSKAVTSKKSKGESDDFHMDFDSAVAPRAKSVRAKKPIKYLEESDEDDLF
UniProt Q9Y490: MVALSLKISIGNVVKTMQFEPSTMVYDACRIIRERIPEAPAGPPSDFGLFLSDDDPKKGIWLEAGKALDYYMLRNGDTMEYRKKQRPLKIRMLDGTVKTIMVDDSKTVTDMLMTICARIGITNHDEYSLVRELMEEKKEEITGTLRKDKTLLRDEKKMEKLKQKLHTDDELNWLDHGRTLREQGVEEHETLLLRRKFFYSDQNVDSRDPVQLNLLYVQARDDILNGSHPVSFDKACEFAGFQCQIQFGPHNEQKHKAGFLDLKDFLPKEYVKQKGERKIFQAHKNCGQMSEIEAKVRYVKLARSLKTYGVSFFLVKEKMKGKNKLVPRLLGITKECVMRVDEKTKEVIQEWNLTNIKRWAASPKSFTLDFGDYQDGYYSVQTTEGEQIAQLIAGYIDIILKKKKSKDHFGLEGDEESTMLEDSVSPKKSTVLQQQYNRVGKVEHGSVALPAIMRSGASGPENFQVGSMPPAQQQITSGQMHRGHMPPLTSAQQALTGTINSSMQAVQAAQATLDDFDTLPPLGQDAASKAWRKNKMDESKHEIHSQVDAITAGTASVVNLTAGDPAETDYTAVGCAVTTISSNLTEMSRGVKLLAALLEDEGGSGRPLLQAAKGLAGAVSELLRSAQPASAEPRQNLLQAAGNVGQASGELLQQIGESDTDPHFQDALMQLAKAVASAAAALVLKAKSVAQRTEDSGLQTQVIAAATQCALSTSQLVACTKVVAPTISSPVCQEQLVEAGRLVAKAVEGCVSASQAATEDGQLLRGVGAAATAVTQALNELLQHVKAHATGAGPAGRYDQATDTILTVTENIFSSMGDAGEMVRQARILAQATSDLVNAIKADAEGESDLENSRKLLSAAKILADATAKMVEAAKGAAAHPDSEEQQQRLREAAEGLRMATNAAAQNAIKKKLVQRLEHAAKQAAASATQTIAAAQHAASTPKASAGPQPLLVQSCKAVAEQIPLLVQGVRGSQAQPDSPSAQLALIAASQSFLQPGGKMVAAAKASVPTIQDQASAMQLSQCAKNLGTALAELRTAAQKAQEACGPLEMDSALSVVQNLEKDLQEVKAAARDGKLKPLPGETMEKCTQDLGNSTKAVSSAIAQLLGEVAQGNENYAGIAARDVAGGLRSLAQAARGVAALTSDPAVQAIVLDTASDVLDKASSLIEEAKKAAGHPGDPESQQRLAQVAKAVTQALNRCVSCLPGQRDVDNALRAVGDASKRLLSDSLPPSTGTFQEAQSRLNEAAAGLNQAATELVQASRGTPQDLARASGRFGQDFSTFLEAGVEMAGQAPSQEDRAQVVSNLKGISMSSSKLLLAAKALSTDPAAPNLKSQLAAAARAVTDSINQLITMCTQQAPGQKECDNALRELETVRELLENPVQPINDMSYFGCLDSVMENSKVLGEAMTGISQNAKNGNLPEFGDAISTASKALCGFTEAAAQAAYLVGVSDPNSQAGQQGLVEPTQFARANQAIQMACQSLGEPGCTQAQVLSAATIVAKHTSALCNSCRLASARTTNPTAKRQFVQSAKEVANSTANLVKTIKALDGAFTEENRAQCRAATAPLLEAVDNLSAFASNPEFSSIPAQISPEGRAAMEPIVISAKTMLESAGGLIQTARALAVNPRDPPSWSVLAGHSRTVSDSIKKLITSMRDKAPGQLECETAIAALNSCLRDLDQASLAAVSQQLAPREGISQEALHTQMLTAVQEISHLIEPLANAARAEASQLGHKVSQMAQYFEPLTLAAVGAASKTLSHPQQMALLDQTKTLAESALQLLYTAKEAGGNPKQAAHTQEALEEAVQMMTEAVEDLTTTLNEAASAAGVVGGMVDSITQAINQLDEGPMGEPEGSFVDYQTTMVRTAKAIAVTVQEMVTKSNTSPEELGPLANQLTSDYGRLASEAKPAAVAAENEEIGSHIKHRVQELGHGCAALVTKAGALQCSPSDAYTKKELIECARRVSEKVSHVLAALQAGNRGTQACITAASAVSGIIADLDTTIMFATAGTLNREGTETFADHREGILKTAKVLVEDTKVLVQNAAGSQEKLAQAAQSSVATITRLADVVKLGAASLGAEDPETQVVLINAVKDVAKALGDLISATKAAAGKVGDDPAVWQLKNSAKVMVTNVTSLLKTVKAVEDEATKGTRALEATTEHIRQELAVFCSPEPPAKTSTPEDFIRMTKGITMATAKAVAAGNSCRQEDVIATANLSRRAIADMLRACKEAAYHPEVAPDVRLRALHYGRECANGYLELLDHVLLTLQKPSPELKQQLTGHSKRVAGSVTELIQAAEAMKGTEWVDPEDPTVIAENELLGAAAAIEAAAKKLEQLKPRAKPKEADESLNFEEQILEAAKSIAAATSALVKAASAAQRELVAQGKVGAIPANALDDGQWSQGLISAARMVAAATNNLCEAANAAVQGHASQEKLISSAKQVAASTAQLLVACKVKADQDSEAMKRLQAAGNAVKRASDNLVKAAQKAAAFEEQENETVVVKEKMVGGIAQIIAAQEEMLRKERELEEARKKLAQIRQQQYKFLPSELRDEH
UniProt P11387: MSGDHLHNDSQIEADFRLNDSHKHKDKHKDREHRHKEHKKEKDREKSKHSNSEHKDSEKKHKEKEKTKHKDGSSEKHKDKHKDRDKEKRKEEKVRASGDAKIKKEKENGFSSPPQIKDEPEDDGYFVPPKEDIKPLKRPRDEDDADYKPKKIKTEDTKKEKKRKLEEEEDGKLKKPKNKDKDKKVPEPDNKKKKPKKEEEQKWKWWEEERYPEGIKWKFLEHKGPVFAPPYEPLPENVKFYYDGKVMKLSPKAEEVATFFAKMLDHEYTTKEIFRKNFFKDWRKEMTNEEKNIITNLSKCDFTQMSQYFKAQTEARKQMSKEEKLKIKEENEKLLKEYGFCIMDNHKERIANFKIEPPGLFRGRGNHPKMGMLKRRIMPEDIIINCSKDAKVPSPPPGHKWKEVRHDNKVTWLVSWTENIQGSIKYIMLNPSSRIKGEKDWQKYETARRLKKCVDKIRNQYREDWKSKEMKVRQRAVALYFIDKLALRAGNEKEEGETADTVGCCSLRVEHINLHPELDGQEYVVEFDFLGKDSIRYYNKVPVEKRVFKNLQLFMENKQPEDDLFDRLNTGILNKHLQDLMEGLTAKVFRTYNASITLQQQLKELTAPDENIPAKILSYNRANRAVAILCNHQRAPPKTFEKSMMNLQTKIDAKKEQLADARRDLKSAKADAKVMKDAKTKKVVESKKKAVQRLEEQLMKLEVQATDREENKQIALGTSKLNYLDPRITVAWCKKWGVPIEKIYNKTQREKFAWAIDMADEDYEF
UniProt Q9C0C2: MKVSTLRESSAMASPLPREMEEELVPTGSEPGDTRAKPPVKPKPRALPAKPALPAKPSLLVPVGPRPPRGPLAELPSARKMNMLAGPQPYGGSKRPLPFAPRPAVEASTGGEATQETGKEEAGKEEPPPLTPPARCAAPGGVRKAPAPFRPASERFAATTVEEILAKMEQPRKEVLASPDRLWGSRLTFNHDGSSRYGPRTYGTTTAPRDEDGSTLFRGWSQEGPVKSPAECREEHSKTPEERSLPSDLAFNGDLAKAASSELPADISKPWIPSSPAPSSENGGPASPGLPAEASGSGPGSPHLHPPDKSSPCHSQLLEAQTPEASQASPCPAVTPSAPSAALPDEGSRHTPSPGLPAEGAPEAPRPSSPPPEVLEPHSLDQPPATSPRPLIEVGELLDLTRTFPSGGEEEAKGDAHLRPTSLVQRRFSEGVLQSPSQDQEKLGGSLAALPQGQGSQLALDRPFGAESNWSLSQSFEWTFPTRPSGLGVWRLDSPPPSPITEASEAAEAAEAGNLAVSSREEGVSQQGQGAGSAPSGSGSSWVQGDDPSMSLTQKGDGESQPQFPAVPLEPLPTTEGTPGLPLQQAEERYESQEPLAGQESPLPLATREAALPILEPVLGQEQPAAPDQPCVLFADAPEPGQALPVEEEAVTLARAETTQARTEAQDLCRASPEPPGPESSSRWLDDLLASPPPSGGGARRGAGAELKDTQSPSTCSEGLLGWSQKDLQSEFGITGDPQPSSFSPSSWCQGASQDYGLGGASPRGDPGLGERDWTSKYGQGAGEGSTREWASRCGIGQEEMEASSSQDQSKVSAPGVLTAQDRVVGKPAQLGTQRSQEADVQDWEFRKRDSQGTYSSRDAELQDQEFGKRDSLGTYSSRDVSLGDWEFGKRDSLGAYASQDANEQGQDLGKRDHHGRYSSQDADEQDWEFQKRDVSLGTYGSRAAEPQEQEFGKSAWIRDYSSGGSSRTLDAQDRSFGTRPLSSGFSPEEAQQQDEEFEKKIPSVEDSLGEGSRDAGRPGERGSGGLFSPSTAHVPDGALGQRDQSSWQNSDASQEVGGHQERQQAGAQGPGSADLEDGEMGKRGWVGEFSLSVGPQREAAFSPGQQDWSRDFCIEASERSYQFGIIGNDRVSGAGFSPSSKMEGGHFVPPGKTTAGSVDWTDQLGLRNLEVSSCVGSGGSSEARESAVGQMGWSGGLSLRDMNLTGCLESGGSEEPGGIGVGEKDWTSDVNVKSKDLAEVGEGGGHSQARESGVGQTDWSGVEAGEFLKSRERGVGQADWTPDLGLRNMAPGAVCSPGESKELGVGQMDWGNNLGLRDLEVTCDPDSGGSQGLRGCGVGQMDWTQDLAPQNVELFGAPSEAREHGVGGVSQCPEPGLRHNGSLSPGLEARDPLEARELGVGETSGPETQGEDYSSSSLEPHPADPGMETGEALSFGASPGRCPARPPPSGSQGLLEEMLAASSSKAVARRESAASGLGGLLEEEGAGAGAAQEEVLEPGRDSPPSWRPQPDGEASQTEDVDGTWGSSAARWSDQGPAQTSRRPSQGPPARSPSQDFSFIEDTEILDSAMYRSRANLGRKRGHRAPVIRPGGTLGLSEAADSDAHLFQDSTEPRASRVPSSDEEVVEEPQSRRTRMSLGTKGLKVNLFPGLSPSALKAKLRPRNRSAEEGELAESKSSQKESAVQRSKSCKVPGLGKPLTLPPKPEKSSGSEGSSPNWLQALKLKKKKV

These targets were tested with CC1Cc2ccccc2N1C(=O)C1CCCN(C1)C(=O)CCl (mixture of isomers) [TRIM25 ligand 11 (diastereomer mixture)] (assay: probe-labelled cysteine peptide fold change vs DMSO (competition) (log2 fold change); higher = less target engagement (more negative = stronger competition)). Conditions: 50 µM; THP-1; incubation time: 4 h.
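Further: competitive chemoproteomic profiling in live THP-1 cells with an iodoacetamide desthiobiotin (IA-DTB) probe, comparing probe-labelled peptide intensities in compound-treated cells against DMSO-treated controls.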

Row | Target | probe-labelled cysteine peptide fold change
1 | TOP2A_P11388_1145_EKKDELCR (UniProt P11388) | -0.292
2 | TMEM39A_Q9NV64_276_NEVECLK (UniProt Q9NV64) | 0.183
3 | TMEM209_Q96SK2_455_KWDTDLPTDSAIIMHVFCTYLDSR (UniProt Q96SK2) | 0.0839
4 | TOR1AIP2_Q8NFQ8_310_CLSHHVADAYTSSQK (UniProt Q8NFQ8) | 0.216
5 | TLN1_Q9Y490_1509_HTSALCNSCR (UniProt Q9Y490) | -0.00269
6 | TLN1_Q9Y490_29_TMQFEPSTMVYDACR (UniProt Q9Y490) | -0.185
7 | TMA16_Q96EY4_162_KICANDAIPK (UniProt Q96EY4) | -0.344
8 | TMEM87B_Q96K49_121_LSVDEDFCHYLK (UniProt Q96K49) | -0.152
9 | TMEM120B_A0PK00_8_CEREWHELEGEFQELQETHR (UniProt A0PK00) | -0.0746
10 | TOP1_P11387_505_AGNEKEEGETADTVGCCSLR (UniProt P11387) | -0.338
11 | TNKS1BP1_Q9C0C2_136_CAAPGGVR (UniProt Q9C0C2) | -0.221
12 | TMPO_P42166_330_DIVENICGR (UniProt P42166) | -0.0177
13 | TLN1_Q9Y490_2408_MVAAATNNLCEAANAAVQGHASQEK (UniProt Q9Y490) | -0.193
14 | TOPBP1_Q92547_113_AEHPVYNMVMSDVTISCTSLEK (UniProt Q92547) | -0.208
15 | TONSL_Q96HA7_124_THLDIYDHCQSR (UniProt Q96HA7) | 0.0245
16 | TOP2A_P11388_1008_LQTSLTCNSMVLFDHVGCLK (UniProt P11388) | 0.105
17 | TMEM173_Q86WV6_148_GLAPAEISAVCEK (UniProt Q86WV6) | 0.22
18 | TNIP2_Q8NFZ5_144_AASDVLCR (UniProt Q8NFZ5) | 0.106
19 | TNS3_Q68CZ2_88_MCTICK (UniProt Q68CZ2) | -0.0632
20 | TMEM209_Q96SK2_495_TFTSQHFVQTPNKPDVTNENVFCIYQSAINPPHYELIYQR (UniProt Q96SK2) | -0.07
21 | TOE1_Q96GM8_371_QVCGDSIKPEETEQEVAADETR (UniProt Q96GM8) | -0.0457
22 | TMEM259_Q4ZIN3_246_LSIPVMVVTLDPTRDQCFGDR (UniProt Q4ZIN3) | -0.192
23 | TOP1_P11387_386_RIMPEDIIINCSK (UniProt P11387) | -0.0196
24 | TNRC18_O15417_2602_NCSAASSR (UniProt O15417) | 0.107
